{"source": "PubChem BioAssay AID1224830 (NIAID, 2016)", "test": "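Regulators of TLR4 signalling towards TNF-alpha in macrophage-like cells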 (primary screen)", "cell system": "human THP-1 monocytic leukaemia cells, TNF dual-luciferase reporter clone, PMA-differentiated to macrophage-like cells", "knock-down reagent": "siRNA pool against human genes, 50 nM", "timing": "LPS for 4 h, given about 3 days after siRNA transfection", "challenge": "bacterial LPS (TLR4 ligand), 10 ng/ml", "measured": "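TNF firefly reporter luminescence divided by renilla, normalised to the plate median, then turned into a robust z-score for each replicate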", "direction": "TNF reporter robust z-score: higher = stronger TNF reporter response to LPS", "call rule": "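Each well counts as active if its z-score is over 2.8 or under -1.5; controls are left without a call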", "note": "Shown is a random part of about 18,000 deposited reagents. About 2,900 of all reagents (16%) count as active. 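Calls are made per well; low scores hint the gene aids the LPS response, high scores that it dampens it.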 Unmarked entries are inactive. Repeated entries: four replicate wells of each siRNA pool. No sequences are given here."}
{"Target gene":"PPIC","TNF reporter robust z-score":-1.01}
{"Target gene":"PPIC","TNF reporter robust z-score":0.94}
{"Target gene":"PPIC","TNF reporter robust z-score":-0.28}
{"Target gene":"PPIC","TNF reporter robust z-score":-0.33}
{"Target gene":"EMC7","TNF reporter robust z-score":-1.36}
{"Target gene":"EMC7","TNF reporter robust z-score":-0.86}
{"Target gene":"EMC7","TNF reporter robust z-score":-1.28}
{"Target gene":"EMC7","TNF reporter robust z-score":-0.62}
{"Target gene":"CHMP1B","TNF reporter robust z-score":-0.1}
{"Target gene":"CHMP1B","TNF reporter robust z-score":0.38}
{"Target gene":"CHMP1B","TNF reporter robust z-score":-0.47}
{"Target gene":"CHMP1B","TNF reporter robust z-score":0.33}
{"Target gene":"AEBP2","TNF reporter robust z-score":-0.98}
{"Target gene":"AEBP2","TNF reporter robust z-score":-0.62}
{"Target gene":"AEBP2","TNF reporter robust z-score":-0.5}
{"Target gene":"AEBP2","TNF reporter robust z-score":2.31}
{"Target gene":"ATP6V1D","TNF reporter robust z-score":-0.41}
{"Target gene":"ATP6V1D","TNF reporter robust z-score":1.03}
{"Target gene":"ATP6V1D","TNF reporter robust z-score":0.25}
{"Target gene":"ATP6V1D","TNF reporter robust z-score":1.38}
{"Target gene":"KRT17","TNF reporter robust z-score":-0.67}
{"Target gene":"KRT17","TNF reporter robust z-score":-0.6}
{"Target gene":"KRT17","TNF reporter robust z-score":-0.93}
{"Target gene":"KRT17","TNF reporter robust z-score":-0.72}
{"Target gene":"DIMT1","TNF reporter robust z-score":-1.27}
{"Target gene":"DIMT1","TNF reporter robust z-score":-0.81}
{"Target gene":"DIMT1","TNF reporter robust z-score":-1.12}
{"Target gene":"DIMT1","TNF reporter robust z-score":1.18}

6 entries from above, arranged by “TNF reporter robust z-score”, low to high.
{"Target gene":"EMC7","TNF reporter robust z-score":-1.28}
{"Target gene":"EMC7","TNF reporter robust z-score":-0.86}
{"Target gene":"EMC7","TNF reporter robust z-score":-0.62}
{"Target gene":"CHMP1B","TNF reporter robust z-score":-0.47}
{"Target gene":"CHMP1B","TNF reporter robust z-score":-0.1}
{"Target gene":"CHMP1B","TNF reporter robust z-score":0.38}

Next results:
{"Target gene":"BRD8","TNF reporter robust z-score":-0.34}
{"Target gene":"BRD8","TNF reporter robust z-score":-1.11}
{"Target gene":"BRD8","TNF reporter robust z-score":-0.1}
{"Target gene":"BRD8","TNF reporter robust z-score":-0.25}
{"Target gene":"PPP1CA","TNF reporter robust z-score":0.52}
{"Target gene":"PPP1CA","TNF reporter robust z-score":2.05}
{"Target gene":"PPP1CA","TNF reporter robust z-score":1.24}
{"Target gene":"PPP1CA","TNF reporter robust z-score":2.68}
{"Target gene":"GALNS","TNF reporter robust z-score":-0.21}
{"Target gene":"GALNS","TNF reporter robust z-score":-0.8}
{"Target gene":"GALNS","TNF reporter robust z-score":-0.55}
{"Target gene":"GALNS","TNF reporter robust z-score":-0.52}
{"Target gene":"CD24","TNF reporter robust z-score":0.22}
{"Target gene":"CD24","TNF reporter robust z-score":1.88}
{"Target gene":"CD24","TNF reporter robust z-score":-0.85}
{"Target gene":"CD24","TNF reporter robust z-score":-0.19}
{"Target gene":"BTBD1","TNF reporter robust z-score":-0.09}
{"Target gene":"BTBD1","TNF reporter robust z-score":-0.38}
{"Target gene":"BTBD1","TNF reporter robust z-score":0.3}
{"Target gene":"BTBD1","TNF reporter robust z-score":0.83}
